Measured data: PubChem BioAssay AID1508597 (Cure First, 2020)
Shown is a random part of the about 2,100 reagents, in one setting of the screen. 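Calls flag viability under 80% in either arm, not effects specific to rucaparib; the reference for percent is not stated.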 Entries without a mark were called inactive. Reagent sequences are not shown. The record does not give: the 100% reference.

- Test: 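Knock-downs altering ovarian cancer cell survival with or without PARP inhibitor rucaparib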 (primary screen)
- Cell system: human ovarian carcinoma lines grown from tumours: OCI-P5x (papillary serous) and OCI-C5x (clear cell)
- Knock-down reagent: siRNA pool against human genes, 1.25 pmol siRNA per well
- Duration: 72 h or 96 h, depending on the cell culture
- Conditions: rucaparib 20 µM (about IC30) or vehicle, present until read-out
- Rucaparib or vehicle: Vehicle
- Cell line: OCI-C5x (clear cell)
- Measurement: 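Luminescent ATP-based viability assay read 72 or 96 h after transfection, depending on culture, given as normalised percent viability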
- Scale: viability, normalised: higher = more viable cells remaining
- Hit rule: 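Active when normalised viability falls below 80 percent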
- Meaning of the calls: active = viability under 80%; inactive = viability 80% or more

Target gene	technical replicate	viability, normalised (%)
PHF13 (GeneID 148479)	1	39.7 (active)
PHF13 (GeneID 148479)	2	33.1 (active)
PHF13 (GeneID 148479)	3	30.6 (active)
RAD1 (GeneID 5810)	1	61.8 (active)
RAD1 (GeneID 5810)	2	47.9 (active)
RAD1 (GeneID 5810)	3	48.9 (active)
PDK4 (GeneID 5166)	1	64.8 (active)
PDK4 (GeneID 5166)	2	57.2 (active)
PDK4 (GeneID 5166)	3	51.4 (active)
PHF2 (GeneID 5253)	1	39.2 (active)
PHF2 (GeneID 5253)	2	40.1 (active)
PHF2 (GeneID 5253)	3	38.1 (active)
TSPYL1 (GeneID 7259)	1	61.3 (active)
TSPYL1 (GeneID 7259)	2	47.1 (active)
TSPYL1 (GeneID 7259)	3	50.7 (active)

Next part, starting with the last 2 of the part before.
Target gene	technical replicate	viability, normalised (%)
TSPYL1 (GeneID 7259)	2	47.1 (active)
TSPYL1 (GeneID 7259)	3	50.7 (active)
PHKA2 (GeneID 5256)	1	80.9
PHKA2 (GeneID 5256)	2	75.2 (active)
PHKA2 (GeneID 5256)	3	89.1
JMJD4 (GeneID 65094)	1	65.4 (active)
JMJD4 (GeneID 65094)	2	65.1 (active)
JMJD4 (GeneID 65094)	3	71.1 (active)
PCDHB11 (GeneID 56125)	1	37.1 (active)
PCDHB11 (GeneID 56125)	2	41.8 (active)
PCDHB11 (GeneID 56125)	3	43.8 (active)
